In PubChem BioAssay AID504467 (National Center for Advancing Translational Sciences (NCATS), 2011):
Hit rate of the full screen: of about 330,000 compounds, about 7,700 (2.3%) were called active. The shares of active, inactive and inconclusive entries below differ from those in the screen. The call rests on the fitted dose curve; in most records, active means well fitted inhibition curve with a large enough effect; inconclusive means small, poorly fitted or top-dose-only effect, or effect the other way; inactive means flat fitted curve, though single readings scatter. Potencies of inconclusive entries are doubtful fits and often do not repeat.

Assay: qHTS screen for small molecules that inhibit ELG1-dependent DNA repair in human embryonic kidney (HEK293T) cells expressing luciferase-tagged ELG1; further: nearly all actives have a fitted effect of over 55% in size
Details: HEK293T ELG1-luciferase reporter, luminescence, 16 h, DNA damage induced by 5-fluorouridine; activity change, negative = inhibition: at 46.1 µM (top of the series)
Summary of the method: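 Step one: seed 2,000 cells per well. Step two: pin-transfer compound or DMSO alongside 5-fluorouridine. Step three: incubate 16 hr, 37 °C, 5% CO2. Step four: add ONE-Glo, wait 30 min, read luminescence.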
On the % scale 0 is the no-effect control and ±100 the full control effect; potency means the concentration at half of the fitted maximal effect.

SMILES	Potency	activity change, negative = inhibition
O=C(Nc1ccc(-c2nc3cccnc3s2)cc1)c1cccnc1Cl	inconclusive: 1.46 µM [activator, full curve]	–
O=C(Nc1ccc(Oc2cccnc2)cc1)C1CCN(Cc2ccccc2F)CC1	inconclusive: 16.4 µM [inhibitor, partial curve, poor fit]	–
Cc1cccc(C(=O)Nc2cccc(OC(=O)c3cccc(C)c3)c2)c1	inconclusive: 25.9 µM [activator, single point]	–
Cc1cc(=O)[nH]c(SCc2cc(Cl)ccc2OC(F)F)n1	inconclusive: 29.1 µM [inhibitor, single point]	–
O=C(Cn1nc(-c2ccccc2)ccc1=O)N1CCCCC1	–	inactive: 9.42%
COc1ccc(N=C2SC(CC(=O)Nc3ccccc3)C(=O)N2CCc2ccccn2)cc1 (stereo not drawn)	inconclusive: 29.1 µM [inhibitor, single point]	–
Cc1cc(NS(=O)(=O)c2ccc(NC(=O)Cc3ccc(Cl)c(Cl)c3)cc2)no1	inconclusive: 29.1 µM [activator, single point]	–
CC(C)(C)c1ccc(NC(=O)CCNC(=O)c2ccco2)cc1	–	inactive: 8.29%
C(=N/N1CCN(c2ccccc2)CC1)/c1cccs1	inconclusive: 20.6 µM [activator, partial curve]	–
Cc1cc2nc(-c3ccc(NC(=O)c4cccnc4)cc3)oc2cc1C	inconclusive: 2.91 µM [activator, partial curve]	–
Cc1nc(C)c(C(=O)OCC(=O)NCc2ccccc2Cl)s1	inconclusive: 14.6 µM [inhibitor, partial curve, poor fit]	–
O=C(Nc1ccc(Cc2ccc(NC(=O)N3CCOCC3)cc2)cc1)N1CCOCC1	inconclusive: 8.2 µM [inhibitor, partial curve, poor fit]	–
COc1cccc(CN2CC(C(=O)N3CCOCC3)CCC2=O)c1 (stereo not drawn)	inconclusive: 20.6 µM [activator, single point]	–
COc1ccc(N2CC(C(=O)N3CCC4(CC3)CC(=O)c3ccccc3O4)CC2=O)cc1 (stereo not drawn)	inconclusive: 16.4 µM [inhibitor, partial curve, poor fit]	–
O=C(CC(=O)c1ccccc1)Nc1cccnc1Cl	inconclusive: 20.6 µM [activator, partial curve]	–
O=C(Cn1c[n+](CC(=O)c2ccc([N+](=O)[O-])cc2)cn1)c1ccc([N+](=O)[O-])cc1	inconclusive: 11.6 µM [inhibitor, partial curve, poor fit]	–
CC(C)c1ccc(OCCCN2CCCC2)cc1	–	inactive: 27.8%
CC1CCCCC1NC(=O)NC(=O)CCl (stereo not drawn)	active: 20.6 µM	–
CCN(CC(=O)Nc1ccc(NC(C)=O)cc1)C(=O)C1CC(=O)N(CCc2ccc(OC)c(OC)c2)C1 (stereo not drawn)	inconclusive: 18.3 µM [activator, single point]	–
CNc1nc(C)nc(N/N=C/c2ccccc2)n1	inconclusive: 29.1 µM [activator, single point]	–
CC(C)(C)c1ccc(C(=O)NNc2ncccc2-n2cccc2)cc1	active: 3.26 µM	–
CC1(C)CCCC(C)(C)N1CC(O)COCCOc1ccc(Br)cc1 (stereo not drawn)	–	inactive: 5.21%
OC(COc1ccc2ccccc2c1)Cn1cncn1 (stereo not drawn)	inconclusive: 14.6 µM [activator, partial curve]	–

Whole records as entered above:
CC(C)c1ccc(OCCCN2CCCC2)cc1 as listed: activity change, negative = inhibition: inactive: 27.8%
CNc1nc(C)nc(N/N=C/c2ccccc2)n1 as listed: Potency: inconclusive: 29.1 µM [activator, single point]
Cc1cc(=O)[nH]c(SCc2cc(Cl)ccc2OC(F)F)n1 as listed: Potency: inconclusive: 29.1 µM [inhibitor, single point]

Later entries.

SMILES	Potency	activity change, negative = inhibition
COc1cccc(-n2nc(C(=O)N3CC(C)CC(C)C3)c3ccccc3c2=O)c1 (stereo not drawn)	inconclusive: 23.1 µM [inhibitor, single point]	–
C=CC[C@H](CC(=O)N(CCO)Cc1ccccc1)C(=O)N[C@@H](COC(=O)[C@@H](CC=C)CC(=O)OC(C)(C)C)Cc1c[nH]c2ccccc12	active: 18.3 µM	–
O=C1CCCc2nc(N3CCN(c4ccccc4)CC3)ncc21	inconclusive: 1.41 µM [activator, partial curve]	–
Cc1ccc(-c2nc(NC(=O)CSc3nnc(C)s3)ns2)cc1	inconclusive: 20.6 µM [activator, single point]	–
COc1ccc(-c2cc3cc(OC)c(OC)cc3cn2)cc1	inconclusive: 10.3 µM [activator, partial curve]	–
CCc1ccc2nc(N(CCN(C)C)C(=O)c3ccc4ncsc4c3)sc2c1	inconclusive: 6.51 µM [activator, partial curve]	–
COc1cccc(-c2cc(C(F)(F)F)n3ncc(C(=O)N4CCc5ccccc5C4)c3n2)c1	active: 20.6 µM	–
CC(C)(C)OC(=O)C[C@H]1C/C=C\C[C@H](CC(=O)N(CCO)Cc2ccccc2)C(=O)NC[C@H](c2ccccc2)OC1=O	–	inactive: 0.484%
Cc1c(C(C)(C)O)[nH]c2ccc(C(F)(F)F)cc12	–	inactive: 8.4%
COc1ccc(CN(C(=O)CSc2nnc(-c3ccccc3F)o2)c2ccc(F)cc2)cc1	inconclusive: 29.1 µM [inhibitor, single point]	–
CCOC(=O)N1CCN(Cc2nc(CC3CC3)no2)CC1	inconclusive: 29.1 µM [activator, single point]	–
Cc1ccc(-n2c(SCC(=O)NCCN3C(=O)CSC3=O)nnc2-c2ccccc2F)cc1	–	inactive: 1.03%
COc1ccc(NC(=S)N2CCC(c3ccccc3)C2)cc1 (stereo not drawn)	inconclusive: 14.6 µM [activator, partial curve]	–
CC(C)c1ccc(Nc2nnc(SCC(=O)Nc3ncc(S(=O)(=O)c4ccc([N+](=O)[O-])cc4)s3)s2)cc1	inconclusive: 6.51 µM [activator, single point]	–
COc1ccc(NC(=O)c2c(Nc3ccccc3)sc(C(=O)c3ccc(F)cc3)c2N)cc1	inconclusive: 6.51 µM [inhibitor, single point]	–
COCCn1c(SCC(=O)Nc2ccccc2OC)nc2ccccc21	–	inactive: 4.45%
O=C(CNC(=O)c1ccc(Br)o1)Nc1ccccc1	inconclusive: 29.1 µM [activator, single point]	–
O=C(N/N=C/c1ccco1)C1COc2ccccc2O1 (stereo not drawn)	inconclusive: 18.4 µM [activator, partial curve, poor fit]	–
CCOC(=O)c1c(NC(=O)CCCN2CCOCC2)sc2c1CC(C)(C)OC2	inconclusive: 14.1 µM [inhibitor, single point]	–
C/C(=N\NC(=O)c1cccs1)c1ccc2ccccc2c1	inconclusive: 4.11 µM [activator, partial curve]	–
CC(/C=C/c1ccccc1)=N\Nc1nc(C)cc(C)n1	inconclusive: 5.8 µM [activator, partial curve, poor fit]	–
CCc1nonc1NC(=O)c1oc2c(C)c(C)ccc2c1C	–	inactive: -2.43%
Cc1ccc(NC(=O)c2cccc(S(=O)(=O)N(C)C3CCCCC3)c2)nc1	inconclusive: 29.1 µM [inhibitor, single point]	–

SMILES	Potency	activity change, negative = inhibition
Cc1ccc2c(c1)NC(=O)c1cccnc1N2	inconclusive: 14.6 µM [activator, partial curve]	–
Cc1cc2ccccc2c(=O)[nH]1	inconclusive: 2.24 µM [activator, partial curve, poor fit]	–
O=C(O)c1cccc(-n2c(O)c(C=C3N=c4ccccc4=N3)sc2=S)c1	–	inactive: -29.7%
Cc1cc(=O)oc(C)c1C(=O)Nc1c(C)n(C)n(-c2ccccc2)c1=O	–	inactive: 4.51%
Cc1ccc(NC(=O)Cc2ccccc2F)cc1S(=O)(=O)N1CCCCCC1	active: 11.6 µM	–
CC(=O)Nc1ccc(NC(=O)c2c(-c3ccccc3)noc2C)cn1	–	inactive: 1.91%
NC(=O)c1c(NC(=O)CN2CCN(S(=O)(=O)c3ccccc3)CC2)sc2c1CCC2	inconclusive: 16.4 µM [inhibitor, single point]	–
Nc1c(C(=O)NCc2ccco2)c2nc3ccccc3nc2n1CCc1ccccc1	inconclusive: 13 µM [inhibitor, partial curve]	–
O=C(O)c1ccc(NS(=O)(=O)c2ccc3c(c2)C2C=CCC2C(c2ccccc2F)N3)cc1 (stereo not drawn)	–	inactive: 10.5%
N#CCC(=O)N/N=C/c1ccc(N2N=C(c3ccccc3)CC2c2ccccc2)cc1 (stereo not drawn)	inconclusive: 20.6 µM [inhibitor, single point]	–
COc1ccc(C[C@H]2CN3C(=NC[C@@H]3Cc3ccccc3)N2CCNC(=O)c2ccc(C)c(Br)c2)cc1	–	inactive: 4.41%
Cc1nn(-c2ccccc2)c(C)c1C(=O)NCCc1ccccc1	inconclusive: 20.6 µM [activator, partial curve]	–
CC1=NN2C(=N)/C(=C\c3cc(C)n(-c4ccccc4)c3C)C(=O)N=C2S1	–	inactive: 5.1%
NC(=O)[C@@H]1CCNc2c(I)cc([N+](=O)[O-])cc2C(=O)N[C@@H](CO)C(=O)N[C@@H](Cc2ccc(O)cc2)C(=O)N1	–	inactive: 2.92%
N#C/C(=C/c1ccc(N2CCCCCC2)o1)c1cccc(F)c1	inconclusive: 5.17 µM [activator, single point]	–
COc1ccc(-c2cc(-c3ccc(Cl)cc3)n[nH]2)c(O)c1	inconclusive: 4.61 µM [activator, full curve]	–
Cc1ccc(S(=O)(=O)Nc2ccc(-c3ccc4nncn4n3)cc2)cc1	inconclusive: 13 µM [activator, partial curve, poor fit]	–
CCn1c(SCC(=O)Nc2ccc3c(c2)OCO3)nc2c(c1=O)SC(C)C2 (stereo not drawn)	–	inactive: 5.48%
Cc1ccc(O)c(-c2cc3ccccc3[nH]2)c1	inconclusive: 18.4 µM [activator, single point]	–
O=C(NCCN1CCOCC1)c1ccc2c(c1)N(Cc1cccc(F)c1)C(=O)c1ccccc1S2	inconclusive: 23.1 µM [inhibitor, partial curve, poor fit]	–
COc1ccc(N2CCN(C(=O)c3cc(S(=O)(=O)N4CCCCCC4)ccc3OC)CC2)cc1	–	inactive: -9.87%
COc1ccc(N(C=O)C(=S)SC)cc1	inconclusive: 14.6 µM [activator, single point]	–
